# Measured values reported in patent publication US20230365577A1, “Photodynamic Therapy and Diagnosis” (RMW CHO Group Limited, priority 2020, published 2023).
# Tested on: SKOV3 ovarian cancer cells
# Experiment: Phototoxicity in SKOV3 cells (652 nm laser, AlamarBlue viability)
# Assay type: cell-based, Human
# Conditions: calculated using phototoxicity IC90 vs dark toxicity IC10, SKOV3
# Experimental: Human ovarian cancer cell line SKOV3 (ATCC #HTB-77) was maintained in Dulbecco's Modified Eagle Medium/Nutrient Mixture F-12 (DMEM/F-12), supplemented with 10% v/v Fetal Bovine Serum, 100 U/mL penicillin and 100 µg/mL streptomycin. Monolayer cultures were grown in a humidified incubator at 37° C. with 5% CO2.
# For in vitro experiments, photosensitizers (stock solution 5.5 mM in 100% DMSO) were diluted in cell culture media (Dulbecco's Modified Eagle Medium/Nutrient Mixture F-12) supplemented with 10% v/v Fetal Bovine Serum, 100 U/mL penicillin, 100 µg/mL streptomycin and 10% w/v Kollidon-12. Once cells had reached ˜80% confluence, spent media was replaced with media containing photosensitizer and cells were incubated for the desired period of time to allow photosensitizer uptake.
# SKOV3 cells were seeded in 96-well black wall plates (Greiner #655090) at a cell density of 5000 cells in 100 μl culture medium per well. On reaching ˜60% confluence, so media was aspirated and replaced with fresh media containing the relevant phyllochlorin analogue from 0-100 μM in DMSO. Cells were incubated for a further 24 hours, allowing uptake of phyllochlorin analogues.
# To test for phototoxicity, cells incubated with phyllochlorin analogues (0-10 μM in DMSO) had culture media replaced after 24 hours (as above) and were then exposed to a 652 nm laser (Invion) with laser density at 50 mW/cm^2 for 5 mins (total 15 J/cm^2). Following activation, cells were cultured for a further 24 hours. Media was then replaced with fresh media containing AlamarBlue, and % viable cells remaining assessed as above. Controls included cells treated with phyllochlorin analogues but not activated by laser light; cells without phyllochlorin analogue treatment but with laser light; and untreated controls. All measurements were made in quadruplicate.
# For comparative purposes, phyllochlorin analogues were tested and compared against both chlorin e4 disodium and Talaporfin sodium, a clinically approved photosensitizer used in the photodynamic treatment of lung cancers. Phototoxicity IC90 values and dark toxicity IC10 values were calculated using a log[inhibitor]-vs normalized response dose curve with variable slope, using the formula Y=100/(1+(IC90/X)^HillSlope (phototoxicity IC90) or Y=100/(1+(IC10/X)^HillSlope (dark toxicity IC10).
row,Compound,Therapeutic Index
1,"3-((7S,8S)-18-ethyl-2,5,8,12,17-pentamethyl-13-vinyl-7H,8H-porphyrin-7-yl)-N-(2-(2-hydroxyethoxy)ethyl)-N-methylpropanamide zinc complex [Compound 21]",1.71
2,"3-((7S,8S)-18-ethyl-2,5,8,12,17-pentamethyl-13-vinyl-7H,8H-porphyrin-7-yl)-N-methyl-N-(3-(((2S,3R,4S,5S,6R)-3,4,5-trihydroxy-6-(hydroxymethyl)tetrahydro-2H-pyran-2-yl)thio)propyl)propanamide zinc complex [Compound 19]",1.57
3,"C=Cc1c(C)c2cc3nc(c(C)c4[nH]c(cc5nc(cc1[nH]2)C(C)=C5CC)c(C)c4C(=O)O)[C@@H](CCC(=O)O)[C@@H]3C [Chlorin e4 disodium, chlorin e4 disodium, reference compound]",1.89
4,"C=Cc1c(C)c2cc3nc(c(C)c4cc(C)c(cc5nc(cc1[nH]2)C(C)=C5CC)[nH]4)[C@@H](CCC(=O)O)[C@@H]3C [Compound 1c, phyllochlorin choline salt]",276.24
5,"C=Cc1c(C)c2cc3nc(c(C)c4cc(C)c(cc5nc(cc1[nH]2)C(C)=C5CC)[nH]4)[C@@H](CCC(=O)O)[C@@H]3C [Compound 1d, phyllochlorin arginine salt]",12.78
6,"C=Cc1c(C)c2cc3nc(c(C)c4cc(C)c(cc5nc(cc1[nH]2)C(C)=C5CC)[nH]4)[C@@H](CCC(=O)O)[C@@H]3C [Compound 1e, phyllochlorin meglumine salt]",11.58
7,"C=Cc1c(C)c2cc3nc(c(C)c4cc(C)c(cc5nc(cc1[nH]2)C(C)=C5CC)[nH]4)[C@@H](CCC(=O)NCCCS[C@@H]1O[C@H](CO)[C@@H](O)[C@H](O)[C@H]1O)[C@@H]3C [Compound 3, 3-((7S,8S)-18-ethyl-2,5,8,12,17-pentamethyl-13-vinyl-7H,8H-porphyrin-7-yl)-N-(3-(((2S,3R,4S,5S,6R)-3,4,5-trihydroxy-6-(hydroxymethyl)tetrahydro-2H-pyran-2-yl)thio)propyl)propanamide]",258.25
8,"C=Cc1c(C)c2cc3nc(c(C)c4cc(C)c(cc5nc(cc1[nH]2)C(C)=C5CC)[nH]4)[C@@H](CCC(=O)N(C)CCOCCOCCO)[C@@H]3C [Compound 4, 3-((7S,8S)-18-ethyl-2,5,8,12,17-pentamethyl-13-vinyl-7H,8H-porphyrin-7-yl)-N-(2-(2-(2-hydroxyethoxy)ethoxy)ethyl)-N-methylpropanamide]",136.75
9,"C=Cc1c(C)c2cc3nc(c(C)c4cc(C)c(cc5nc(cc1[nH]2)C(C)=C5CC)[nH]4)[C@@H](CCC(=O)N(C)CCCO)[C@@H]3C [Compound 5, 3-((7S,8S)-18-ethyl-2,5,8,12,17-pentamethyl-13-vinyl-7H,8H-porphyrin-7-yl)-N-(3-hydroxypropyl)-N-methylpropanamide]",416.40
10,"C=Cc1c(C)c2cc3nc(c(C)c4cc(C)c(cc5nc(cc1[nH]2)C(C)=C5CC)[nH]4)[C@@H](CCC(=O)N(C)CCCCCO)[C@@H]3C [Compound 7, 3-((7S,8S)-18-ethyl-2,5,8,12,17-pentamethyl-13-vinyl-7H,8H-porphyrin-7-yl)-N-(5-hydroxypentyl)-N-methylpropanamide]",285.40
11,"C=Cc1c(C)c2cc3nc(c(C)c4cc(C)c(cc5nc(cc1[nH]2)C(C)=C5CC)[nH]4)[C@@H](CCC(=O)N(C)CCC[S+]([O-])[C@@H]1O[C@H](CO)[C@@H](O)[C@H](O)[C@H]1O)[C@@H]3C (stereo partly drawn) [Compound 9, 3-((7S,8S)-18-ethyl-2,5,8,12,17-pentamethyl-13-vinyl-7H,8H-porphyrin-7-yl)-N-methyl-N-(3-(((2S,3R,4S,5S,6R)-3,4,5-trihydroxy-6-(hydroxymethyl)tetrahydro-2H-pyran-2-yl)thio)propyl)propanamide sulphoxide]",369.68
12,"C=Cc1c(C)c2cc3nc(c(C)c4cc(C)c(cc5nc(cc1[nH]2)C(C)=C5CC)[nH]4)[C@@H](CCC(=O)N(C)CCO)[C@@H]3C [Compound 10, 3-((7S,8S)-18-ethyl-2,5,8,12,17-pentamethyl-13-vinyl-7H,8H-porphyrin-7-yl)-N-(2-hydroxyethyl)-N-methylpropanamide]",93.38
13,"C=Cc1c(C)c2cc3nc(c(C)c4cc(C)c(cc5nc(cc1[nH]2)C(C)=C5CC)[nH]4)[C@@H](CCC(=O)N(C)CCCS[C@@H]1O[C@H](COC(C)=O)[C@@H](OC(C)=O)[C@H](OC(C)=O)[C@H]1OC(C)=O)[C@@H]3C [Compound 11, (2R,3R,4S,5R,6S)-2-(acetoxymethyl)-6-((3-(3-((7S,8S)-18-ethyl-2,5,8,12,17-pentamethyl-13-vinyl-7H,8H-porphyrin-7-yl)-N-methylpropanamido)propyl)thio)tetrahydro-2H-pyran-3,4,5-triyl triacetate]",58.00
14,"C=Cc1c(C)c2cc3nc(c(C)c4cc(C)c(cc5nc(cc1[nH]2)C(C)=C5CC)[nH]4)[C@@H](CCC(=O)N(C)CCCS[C@@H]1O[C@H](COC(=O)[C@@H](N)C(C)C)[C@@H](O)[C@H](O)[C@H]1O)[C@@H]3C [Compound 12, ((2R,3S,4S,5R,6S)-6-((3-(3-((7S,8S)-18-ethyl-2,5,8,12,17-pentamethyl-13-vinyl-7H,8H-porphyrin-7-yl)-N-methylpropanamido)propyl)thio)-3,4,5-trihydroxytetrahydro-2H-pyran-2-yl)methyl L-valinate hydrochloride]",157.56
15,"C=Cc1c(C)c2cc3nc(c(C)c4cc(C)c(cc5nc(cc1[nH]2)C(C)=C5CC)[nH]4)[C@@H](CCC(=O)N[C@H]1C(O)O[C@H](CO)[C@@H](O)[C@@H]1O)[C@@H]3C (some centres unmarked) [Compound 13, phyllochlorin 2-deoxyglucosamine-propylamide]",108.50
16,"C=Cc1c(C)c2cc3nc(c(C)c4cc(C)c(cc5nc(cc1[nH]2)C(C)=C5CC)[nH]4)[C@@H](CCC(=O)N(C)CCOCCO[C@@H]1O[C@H](CO)[C@@H](O)[C@H](O)[C@H]1O)[C@@H]3C [Compound 14, 3-((7S,8S)-18-ethyl-2,5,8,12,17-pentamethyl-13-vinyl-7H,8H-porphyrin-7-yl)-N-methyl-N-(2-(2-(((2R,3R,4S,5S,6R)-3,4,5-trihydroxy-6-(hydroxymethyl)tetrahydro-2H-pyran-2-yl)oxy)ethoxy)ethyl)propanamide]",134.06
17,"C=Cc1c(C)c2cc3nc(c(C)c4cc(C)c(cc5nc(cc1[nH]2)C(C)=C5CC)[nH]4)[C@@H](CCC(=O)N(C)CCCO[C@@H]1O[C@H](CO)[C@@H](O)[C@H](O)[C@H]1O)[C@@H]3C [Compound 15, 3-((7S,8S)-18-ethyl-2,5,8,12,17-pentamethyl-13-vinyl-7H,8H-porphyrin-7-yl)-N-methyl-N-(3-(((2R,3R,4S,5S,6R)-3,4,5-trihydroxy-6-(hydroxymethyl)tetrahydro-2H-pyran-2-yl)oxy)propyl)propanamide]",63.48
18,"C=Cc1c(C)c2cc3nc(c(C)c4cc(C)c(cc5nc(cc1[nH]2)C(C)=C5CC)[nH]4)[C@@H](CCC(=O)N(C)CCCS[C@H]1O[C@H](CO)[C@@H](O)[C@H](O)[C@@H]1O)[C@@H]3C [Compound 16, phyllochlorin α-D-1-thiomannose-N-methylpropylamide conjugate]",114.56
19,"C=Cc1c(C)c2cc3nc(c(C)c4cc(C)c(cc5nc(cc1[nH]2)C(C)=C5CC)[nH]4)[C@@H](CCC(=O)N(C)CCOCCO)[C@@H]3C [Compound 18, 3-((7S,8S)-18-ethyl-2,5,8,12,17-pentamethyl-13-vinyl-7H,8H-porphyrin-7-yl)-N-(2-(2-hydroxyethoxy)ethyl)-N-methylpropanamide]",323.00
20,"C=Cc1c(C)c2cc3nc(c(C)c4cc(C)c(cc5nc(cc1[nH]2)C(C)=C5CC)[nH]4)[C@@H](CCC(=O)NCCOCCO[C@@H]1O[C@H](CO)[C@@H](O)[C@H](O)[C@H]1O)[C@@H]3C [Compound 20, 3-((7S,8S)-18-ethyl-2,5,8,12,17-pentamethyl-13-vinyl-7H,8H-porphyrin-7-yl)-N-(2-(2-(((2R,3R,4S,5S,6R)-3,4,5-trihydroxy-6-(hydroxymethyl)tetrahydro-2H-pyran-2-yl)oxy)ethoxy)ethyl)propanamide]",201.00
21,"C=CC1=C(C)c2cc3nc(c(C)c4cc(C)c(cc5[nH]c(cc1n2)c(C)c5CC)[nH]4)[C@@H](CCC(=O)O)[C@@H]3C [Phyllochlorin free acid, phyllochlorin free acid]",47.62

# Same assay, conditions: calculated using phototoxicity IC90 vs dark toxicity IC10, SKOV3; lithium salt
row,Compound,Therapeutic Index
1,"C=Cc1c(C)c2cc3nc(c(C)c4cc(C)c(cc5nc(cc1[nH]2)C(C)=C5CC)[nH]4)[C@@H](CCC(=O)O)[C@@H]3C [Compound 1b, phyllochlorin lithium salt]",15.81

# Same assay, conditions: calculated using phototoxicity IC90 vs dark toxicity IC10, SKOV3; potassium salt
row,Compound,Therapeutic Index
1,"C=Cc1c(C)c2cc3nc(c(C)c4cc(C)c(cc5nc(cc1[nH]2)C(C)=C5CC)[nH]4)[C@@H](CCC(=O)O)[C@@H]3C [Compound 1a, phyllochlorin potassium salt]",26.40

# Where a name gives a salt, the structure may show the parent alone.
